Data from PubChem BioAssay AID651768 (National Center for Advancing Translational Sciences (NCATS), 2012).
The whole screen tested about 360,000 compounds, of which about 1,700 (0.47%) were called active. The shares of active, inactive and inconclusive entries below differ from those in the screen. Calls follow the shape of the dose curve; as a rule, active = well fitted inhibition curve with a large enough effect; inconclusive = small, poorly fitted or top-dose-only effect; inactive = no such curve, though single readings can be large or run the other way. Where the call is inconclusive, the potency comes from a doubtful curve fit.

Sequences of proteins named here, by UniProt entry; tags and fusion partners are left off.
UniProt Q14191, whole entry, looked up: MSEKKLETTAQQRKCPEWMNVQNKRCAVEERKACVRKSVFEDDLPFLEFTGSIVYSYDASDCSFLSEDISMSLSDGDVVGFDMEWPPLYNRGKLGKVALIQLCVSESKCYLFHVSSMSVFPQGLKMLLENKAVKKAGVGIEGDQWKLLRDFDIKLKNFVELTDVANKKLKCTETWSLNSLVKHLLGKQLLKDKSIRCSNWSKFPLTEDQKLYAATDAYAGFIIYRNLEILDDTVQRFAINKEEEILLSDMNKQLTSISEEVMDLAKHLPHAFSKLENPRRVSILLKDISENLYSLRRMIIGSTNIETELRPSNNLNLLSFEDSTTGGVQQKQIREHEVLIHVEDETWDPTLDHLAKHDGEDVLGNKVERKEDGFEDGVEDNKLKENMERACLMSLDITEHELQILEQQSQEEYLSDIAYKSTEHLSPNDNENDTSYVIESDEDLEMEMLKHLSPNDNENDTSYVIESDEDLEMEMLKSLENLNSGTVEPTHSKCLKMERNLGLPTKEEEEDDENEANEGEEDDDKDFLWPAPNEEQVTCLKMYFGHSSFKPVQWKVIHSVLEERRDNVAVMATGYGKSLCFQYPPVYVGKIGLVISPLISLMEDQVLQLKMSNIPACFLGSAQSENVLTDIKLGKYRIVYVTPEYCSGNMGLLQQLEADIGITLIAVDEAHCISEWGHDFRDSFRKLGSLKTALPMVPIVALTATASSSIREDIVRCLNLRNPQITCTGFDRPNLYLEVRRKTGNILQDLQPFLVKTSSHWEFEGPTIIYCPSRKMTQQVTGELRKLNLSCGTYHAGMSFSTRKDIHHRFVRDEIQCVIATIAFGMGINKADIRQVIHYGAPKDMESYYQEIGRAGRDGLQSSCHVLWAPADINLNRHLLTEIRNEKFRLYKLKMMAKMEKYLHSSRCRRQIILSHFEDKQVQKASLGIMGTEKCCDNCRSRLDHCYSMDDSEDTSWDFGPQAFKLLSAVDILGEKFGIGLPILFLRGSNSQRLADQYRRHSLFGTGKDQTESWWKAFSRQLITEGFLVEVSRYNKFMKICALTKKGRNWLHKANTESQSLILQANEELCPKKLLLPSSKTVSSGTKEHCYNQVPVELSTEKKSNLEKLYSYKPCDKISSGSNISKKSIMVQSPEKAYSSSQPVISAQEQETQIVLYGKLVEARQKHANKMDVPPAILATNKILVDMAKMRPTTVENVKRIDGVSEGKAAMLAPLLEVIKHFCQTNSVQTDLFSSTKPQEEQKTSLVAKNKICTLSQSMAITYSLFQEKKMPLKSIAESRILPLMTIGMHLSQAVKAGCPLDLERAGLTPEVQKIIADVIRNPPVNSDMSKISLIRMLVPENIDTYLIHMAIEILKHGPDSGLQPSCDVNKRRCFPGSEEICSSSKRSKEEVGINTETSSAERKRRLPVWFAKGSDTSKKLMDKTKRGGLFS

The compounds below were run against Bifunctional 3'-5' exonuclease/ATP-dependent helicase WRN (Homo sapiens) (UniProt Q14191) (assay: qHTS for Inhibitors of WRN Helicase). Conditions: WRN helicase unwinding, fluorescent forked duplex, kinetic; activity change, negative = inhibition: at 114 µM (top of the series) unless noted.
How it was run: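 Kinetic red-fluorescence monitoring (525/598 nm) tracks WRN helicase activity after 100 nM fluorophore-quencher forked duplex and 2 mM ATP are added to 20 nM enzyme pretreated 15 min at room temperature with compound.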
% is scaled to controls: 0 for no effect and ±100 for the full control effect; potency is read from the fitted curve at half-maximal effect.
Also: nearly all actives have a fitted effect of over 55% in size.

| SMILES | activity change, negative = inhibition | Potency |
| --- | --- | --- |
| Cc1ccc(C(=O)c2sc3c(c2N)c(=O)[nH]c(=O)n3CCc2ccccc2)cc1 | inactive: 1.26% |  |
| CCc1cc(C(=O)N=Nc2c(O)[nH]c3ccc([N+](=O)[O-])cc23)c2ccccc2n1 |  | inconclusive: 13.4 µM [inhibitor, partial curve] |
| COC(=O)c1c(-c2cccnc2)csc1NC(=O)c1ccc2c(c1)OCO2 |  | inconclusive: 31.6 µM [inhibitor, partial curve] |
| Cc1nnc(SCC(=O)Nc2sccc2C#N)s1 |  | inconclusive: 50.1 µM [inhibitor, partial curve] |
| COc1cc(C2NC(=O)NC3=C2C(=O)OC3)cc(OC)c1OC (centres undefined) | inactive: 7.34% |  |
| CCN1C(=O)CSC1=Nc1ccc(C(=O)OC)cc1 | inactive: 8.52% |  |
| Cc1ccc(C=C2C(=O)c3ccccc3C2=O)o1 |  | inconclusive: 56.2 µM [inhibitor, partial curve] |
| CCNC(=O)CSc1ncnc2sccc12 | inactive: -32.4% |  |
| S=C(NCCc1ccccc1)Nc1ccccn1 | inactive: -0.566% |  |
| CC1=NOC2(C1)N(C)c1ccccc1C2(C)C (centres undefined) | inactive: -2.46% |  |
| CC(C)n1nnnc1C1c2ccccc2C(=O)N1Cc1ccccc1 (centres undefined) | inactive: 0.259% |  |
| CCn1nnc(NC(=O)CSc2ccc(Cl)cc2)n1 |  | inconclusive: 56.2 µM [inhibitor, partial curve] |
| O=C(CSc1ccsc1[N+](=O)[O-])Nc1cccc(F)c1 |  | inconclusive: 56.2 µM [inhibitor, partial curve] |
| Cc1ccc(O)c(C(=O)c2cnn(-c3ccccc3)c2)c1 |  | inconclusive: 89.1 µM [inhibitor, single point] |
| CC(C)C(=O)N(c1ccc2oc(=O)sc2c1)S(=O)(=O)c1cccs1 |  | inconclusive: 56.2 µM [inhibitor, partial curve] |
| Cc1onc(C(=O)Nc2sc3c(c2C#N)CCCC3)c1[N+](=O)[O-] | inactive: -5.14% |  |
| COc1ccc(N(CC(=O)N/N=C/c2cc(Br)c(C)o2)S(=O)(=O)c2ccc(NC(C)=O)cc2)cc1 |  | inconclusive: 79.4 µM [inhibitor, partial curve] |
| O=C(NCC1CCCO1)c1ccc(F)c2ccccc12 (centres undefined) | inactive: -6.33% |  |
| CCN(CC)C(=O)CSc1nc2ccc(NC(=O)CSc3nnc(N)s3)cc2s1 | inactive: -19.4% [at 57.1 µM] |  |
| Cc1ccc(N(CC(O)COCc2ccco2)S(=O)(=O)c2ccc(C)cc2)cc1 (centres undefined) |  | inconclusive: 50.1 µM [inhibitor, partial curve] |
| Cc1ccc(N=C2NC(=O)/C(=C/c3cn(C)c4ccccc34)S2)cc1C |  | inconclusive: 31.6 µM [inhibitor, single point] |
| CCN(CC(=O)Nc1c(F)cccc1F)C(=O)CCN1C(=O)c2cccc([N+](=O)[O-])c2C1=O | inactive: 3.62% |  |
| O=S1(=O)N=C(N(CCO)/N=C/c2ccncc2)c2ccccc21 |  | inconclusive: 22.4 µM [inhibitor, single point] |
| COC(=O)c1sc(NC(=O)c2ccc(C)o2)nc1C |  | inconclusive: 28.2 µM [inhibitor, single point] |
| COc1cc2cc(CN(Cc3nnnn3Cc3ccco3)C3CCCCC3)c(=O)[nH]c2cc1OC |  | inconclusive: 50.1 µM [inhibitor, partial curve] |

| SMILES | activity change, negative = inhibition | Potency |
| --- | --- | --- |
| COc1cc(C(=O)O)cc(OC)c1OCc1cc(C(=O)O)oc1C | inactive: -13.4% |  |
| CN(C)c1ccc(C(C(=O)NC2CCCCC2)N(Cc2ccco2)C(=O)c2snc(C(N)=O)c2N)cc1 (centres undefined) | inactive: -0.0383% |  |
| O=C(CSc1nc2ccccc2c(=O)[nH]1)c1ccc(O)c(O)c1 |  | active: 14.1 µM |
| CC(=O)N(C(C)=O)N1C(=O)/C(=C/c2ccc(Cl)cc2)SC1=S |  | inconclusive: 28.2 µM [inhibitor, full curve] |
| Cc1cc(-c2n[nH]c(=S)n2/N=C/C(Br)=C/c2ccccc2)n[nH]1 |  | inconclusive: 39.8 µM [inhibitor, partial curve] |
| C=C(C)C(=O)Nc1cccc(C2=NOC3(C2)C[C@@H](C(N)=O)N(C(=O)c2ccc(OC)cc2)C3)c1 (some centres undefined) |  | inconclusive: 39.8 µM [inhibitor, partial curve] |
| Cc1nn(-c2ccccc2)c2sc(-c3nnc(SCC(=O)O)o3)cc12 | inactive: -32.1% [at 57.1 µM] |  |
| Cc1nn(C)cc1/C=N/NC(=O)Cn1nccc1C |  | inconclusive: 12.6 µM [inhibitor, single point] |
| CCOc1ccc(/C=c2\sc3nc(-c4ccco4)nn3c2=O)cc1OCC |  | inconclusive: 100 µM [inhibitor, partial curve, poor fit] |
| CN1CCN(CCCNc2nc3ccccc3c3nc(-c4ccccc4)nn23)CC1 | inactive: 1.76% |  |
| Cc1ccc(/C=N/NC(=O)C(O)c2ccccc2)o1 (centres undefined) | inactive: -4.57% |  |
| Nc1nc(Nc2cccc(Cl)c2)nc(NCc2ccco2)c1[N+](=O)[O-] |  | inconclusive: 56.2 µM [inhibitor, partial curve] |
| COc1cccc(Nc2ccccc2C(=O)O)c1 | inactive: -17.1% |  |
| COc1cc(/C=C/C(=O)Nc2ccncc2)cc(OC)c1OC |  | inconclusive: 50.1 µM [inhibitor, partial curve] |
| CN(C)c1ccc(NC(=O)COC(=O)c2ccc3c(c2)OCO3)cc1 |  | inconclusive: 14.1 µM [inhibitor, partial curve] |
| COC(=O)N/N=C/c1ccc(OC(=O)/C=C/c2ccco2)cc1 |  | inconclusive: 79.4 µM [inhibitor, partial curve] |
| Cc1ccc(NC(=O)c2cccc(NC(=O)/C=C/c3ccco3)c2)cc1C | inactive: -8.21% [at 11.6 µM] |  |
| CCOC(=O)c1[nH]cnc1N=Nc1c(O)ccc2ccccc12 |  | inconclusive: 70.8 µM [inhibitor, partial curve, poor fit] |
| Cc1c2cc[n+](CCN3CCCCC3)cc2c(C)c2c1[nH]c1ccc(O)cc12 |  | active: 28.2 µM |
| COc1cccc(/C=N/NC(=O)C(C)Sc2ccccc2)c1 (centres undefined) |  | inconclusive: 25.1 µM [inhibitor, single point] |
| NC(=O)NCCC1=CCCCC1 | inactive: -0.258% |  |
| Nc1nc(N)c2c(ccc3nccc32)[nH]1 |  | inconclusive: 100 µM [inhibitor, single point] |
| O=[N+]([O-])c1ccc(Cl)c(CN2CCC(O)CC2)c1 |  | inconclusive: 17.8 µM [inhibitor, full curve] |
| CCC(C)(C)NC(=O)C1CC(=O)N(CCc2ccc(F)cc2)C1 (centres undefined) |  | inconclusive: 10 µM [inhibitor, full curve, poor fit] |
| Cc1ccc(-n2ccc(=O)c(C(=O)Nc3ccc(S(=O)(=O)Nc4nccc(C)n4)cc3)n2)cc1 | inactive: -13.7% |  |

At a glance, 6 of the compounds above.

| SMILES | activity change, negative = inhibition | Potency |
| --- | --- | --- |
| Cc1cc(-c2n[nH]c(=S)n2/N=C/C(Br)=C/c2ccccc2)n[nH]1 |  | inconclusive: 39.8 µM [inhibitor, partial curve] |
| C=C(C)C(=O)Nc1cccc(C2=NOC3(C2)C[C@@H](C(N)=O)N(C(=O)c2ccc(OC)cc2)C3)c1 (some centres undefined) |  | inconclusive: 39.8 µM [inhibitor, partial curve] |
| Cc1nn(-c2ccccc2)c2sc(-c3nnc(SCC(=O)O)o3)cc12 | inactive: -32.1% [at 57.1 µM] |  |
| Cc1nn(C)cc1/C=N/NC(=O)Cn1nccc1C |  | inconclusive: 12.6 µM [inhibitor, single point] |
| CCOc1ccc(/C=c2\sc3nc(-c4ccco4)nn3c2=O)cc1OCC |  | inconclusive: 100 µM [inhibitor, partial curve, poor fit] |
| CN1CCN(CCCNc2nc3ccccc3c3nc(-c4ccccc4)nn23)CC1 | inactive: 1.76% |  |

The listing continues.

| SMILES | activity change, negative = inhibition | Potency |
| --- | --- | --- |
| Cc1ncoc1C(=O)Nc1ncc([N+](=O)[O-])s1 |  | inconclusive: 39.8 µM [inhibitor, partial curve] |
| c1coc(-c2ccc3nncn3c2)c1 |  | active: 17.8 µM |
| Cc1ccc(NNC(=S)Nc2ccc(C(C)C)cc2)c(C)c1 | inactive: -23.5% |  |
| Nc1nc(=S)c2ncn(C3OC(CO)C(O)C3O)c2[nH]1 (centres undefined) |  | active: 28.2 µM |
| Cc1nnc(SCC2=C(C(=O)O)N3C(=O)C(NC(=O)COc4ccccc4)C3SC2)s1 (centres undefined) |  | inconclusive: 22.4 µM [inhibitor, full curve] |
| CCOC(=O)c1c(NC(=O)COC(=O)c2ccc(NC(=O)CC#N)cc2)sc(C(=O)NC)c1C |  | inconclusive: 63.1 µM [inhibitor, partial curve, poor fit] |
| CSc1nc(Sc2ccccc2)c2ccccc2n1 | inactive: -7.44% |  |
| NC(=O)c1ccccc1NC(=S)NC(=O)CCc1ccccc1 |  | inconclusive: 56.2 µM [inhibitor, partial curve] |
| O=C(Cc1cccs1)N/N=C/C=C\c1ccco1 |  | inconclusive: 39.8 µM [inhibitor, single point] |
| COc1ccc(/C=C/C(=O)C2C(=O)C=C(C)OC2=O)cc1O (centres undefined) |  | inconclusive: 79.4 µM [inhibitor, partial curve] |
| N#C/C(=C\c1ccc(N2CCOCC2)o1)c1ccccc1 | inactive: -10.5% |  |
| NC(=O)c1c(NC(=O)COC(=O)c2ccc(S(=O)(=O)Nc3ccccc3)cc2)sc2c1CCCC2 |  | inconclusive: 39.8 µM [inhibitor, single point] |
| COC(=O)c1ccccc1-c1ccc(/C=N/NC(=O)c2cc3ccccc3o2)o1 | inactive: -13.6% |  |
| Cc1cc(/C=C2\C(=N)N3N=C(S(C)(=O)=O)SC3=NC2=O)c(C)n1Cc1ccccc1 |  | inconclusive: 17.8 µM [inhibitor, full curve, poor fit] |
| O=C(O)c1ccc2c(c1)C(=O)/C(=C/c1ccccc1)C2=O |  | inconclusive: 50.1 µM [inhibitor, partial curve] |
| Cc1ccc(NC(=S)N(CCCN2CCOCC2)Cc2cccs2)c(C)c1 | inactive: -11.3% |  |
| COc1ccccc1-[n+]1c(C)cc(/C=C2\Sc3ccccc3N2C)cc1C |  | inconclusive: 50.1 µM [inhibitor, partial curve] |
| O=C(CNC(=O)C12CC3CC(CC(C3)C1)C2)N/N=C\c1ccco1 |  | inconclusive: 89.1 µM [inhibitor, single point] |
| Cc1ncc(/C=C2\C(=O)Nc3ccccc32)[nH]1 |  | inconclusive: 10 µM [inhibitor, full curve] |
| Cc1sc2nc3ccc(NCc4ccco4)nn3c(=O)c2c1C |  | inconclusive: 79.4 µM [inhibitor, partial curve, poor fit] |
| N#CC1=C(N)Oc2c(O)cc3ccccc3c2C1c1ccsc1 (centres undefined) |  | inconclusive: 31.6 µM [inhibitor, single point] |
| CC(NC(=O)COC(=O)/C=C/c1ccc([N+](=O)[O-])cc1)c1ccccc1 (centres undefined) |  | inconclusive: 100 µM [inhibitor, partial curve, poor fit] |
| O=C(O)CCC(=O)N1CCc2cc(S(=O)(=O)N3CCCCC3)ccc21 | inactive: 1.41% |  |
| N#CCC(=O)Nc1ccc(C(=O)OCC(=O)NC(=O)Nc2ccc3c(c2)OCCO3)cc1 |  | inconclusive: 79.4 µM [inhibitor, partial curve] |
